For at least one compound, name, drawing or mass did not settle the structure.
Target: T1, IbpA-Fic2 (IbpA-2) AMPylation of Cdc42 (Histophilus somni, UniProt Q06277)
T1 construct: a construct solely containing the second of the two domains, IbpA-2; made in house
Assay: Radioactive in-gel AMPylation assay with WT IbpA-Fic2, Cdc42 and α-32P-ATP (cross reactivity)
Format: biochemical
Settings: 10 μM compound, versus DMSO control
Description: 1 μM of HYPE (final concentration) and (where specified) 5 μM of T229A BiP (final concentration) were preincubated with 10 μM DMSO-dissolved compound (final concentration) or equivalent volume of 100% DMSO at room temperature for 10 min in HTS Buffer. Reactions were run for 10 min at 30° C. and began with the addition of 0.01 μCi/μL α-32P-ATP (final concentration). All reactions were performed according to our previously described protocol for in vitro radioactive AMPylation assays19. Where specified, 5 μM of T229A BiP (final concentration) was added to reactions before the addition of compound.
All bacterial Fic specificity assays were conducted with 1 μM GST-tagged IbpA-Fic2, 5 μM GST-tagged Q61L Cdc42, and 0.01 μCi/μL α-32P-ATP (all final concentrations). All other reaction parameters were kept as per HYPE radiolabeled in-gel AMPylation assays.

Amino acid sequences for entries named in this document (tags omitted). Residues count along the entry.
UniProt Q06277, 3640-3777: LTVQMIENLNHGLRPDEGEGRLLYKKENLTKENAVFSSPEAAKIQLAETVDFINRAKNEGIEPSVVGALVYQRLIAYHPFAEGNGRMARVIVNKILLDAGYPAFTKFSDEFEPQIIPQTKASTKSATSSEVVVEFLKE

## O=C(O)C1=CC(=C(c2ccc(O)c(C(=O)O)c2)c2ccc(O)c(C(=O)O)c2)C=CC1=O [Compound I2, aurintricarboxylic acid]
  effect on IbpA-2 AMPylation of Cdc42: no impact on AMPylation of Cdc42

Source: patent US20240382498A1, “NOVEL INHIBITOR OF HYPE-MEDIATED AMPYLATION” (Purdue Research Foundation, priority 2023, published 2024)
